Results deposited as PubChem BioAssay AID743121 (NCATS, 2013)
Here is a random part of about 26,000 reagents. Over the whole deposit, 167 (0.63%) are marked active. 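Calls are per gene from RSA p-values that are not deposited; an individual active-marked siRNA can sensitise only weakly.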 Reagents against one gene are numbered here. Further read-outs or replicates are left out here. No sequences are given here.

- Screen: 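Partners whose loss is lethal together with topoisomerase I blockade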 (primary screen)
- Cells: MDA-MB-231 cells, a human breast cancer line
- Reagent: single siRNA against human genes, 20 nM siRNA (0.8 pmol per well)
- Time to read-out: 120 h (drug added 48 h after transfection, read 72 h later)
- Challenge: camptothecin 20 nM (about EC30) for 72 h; vehicle 0.1% DMSO in parallel plates
- Measurement: 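CellTiter-Glo ATP signal, scaled to control siRNA as percent viability; sensitisation given as log2 of untreated divided by camptothecin-treated viability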
- Scale: log2 vehicle/camptothecin viability: higher = stronger sensitisation to camptothecin
- Hit rule: 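Active genes have an RSA gene-level p-value below 0.001, computed from the ratios of their separate siRNAs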

GMEB1 #1 — log2 vehicle/camptothecin viability: -0.362; Outcome: inactive
GMEB1 #2 — log2 vehicle/camptothecin viability: -0.0501; Outcome: inactive
GMEB1 #3 — log2 vehicle/camptothecin viability: -0.36; Outcome: inactive
GMEB1 #4 — log2 vehicle/camptothecin viability: -0.176; Outcome: inactive
BMP10 #1 — log2 vehicle/camptothecin viability: 0.756; Outcome: inactive
BMP10 #2 — log2 vehicle/camptothecin viability: -0.06; Outcome: inactive
BMP10 #3 — log2 vehicle/camptothecin viability: -0.00402; Outcome: inactive
BMP10 #4 — log2 vehicle/camptothecin viability: -0.425; Outcome: inactive
PTK7 #1 — log2 vehicle/camptothecin viability: -0.193; Outcome: inactive
PTK7 #2 — log2 vehicle/camptothecin viability: -0.274; Outcome: inactive
PTK7 #3 — log2 vehicle/camptothecin viability: 0.225; Outcome: inactive
PTK7 #4 — log2 vehicle/camptothecin viability: -0.0595; Outcome: inactive

Continued (2 carried over from the part before).
PTK7 #3 — log2 vehicle/camptothecin viability: 0.225; Outcome: inactive
PTK7 #4 — log2 vehicle/camptothecin viability: -0.0595; Outcome: inactive
SLC25A43 #1 — log2 vehicle/camptothecin viability: 0.609; Outcome: inactive
SLC25A43 #2 — log2 vehicle/camptothecin viability: -0.47; Outcome: inactive
SLC25A43 #3 — log2 vehicle/camptothecin viability: -0.241; Outcome: inactive
PDE1C #1 — log2 vehicle/camptothecin viability: 0.197; Outcome: inactive
PDE1C #2 — log2 vehicle/camptothecin viability: -0.536; Outcome: inactive
PDE1C #3 — log2 vehicle/camptothecin viability: -0.185; Outcome: inactive
PDE1C #4 — log2 vehicle/camptothecin viability: -0.145; Outcome: inactive
LDLRAD3 #1 — log2 vehicle/camptothecin viability: 0.012; Outcome: inactive
LDLRAD3 #2 — log2 vehicle/camptothecin viability: -0.186; Outcome: inactive
LDLRAD3 #3 — log2 vehicle/camptothecin viability: 0.444; Outcome: inactive
LDLRAD3 #4 — log2 vehicle/camptothecin viability: 0.125; Outcome: inactive
STYXL1 #1 — log2 vehicle/camptothecin viability: -0.259; Outcome: active
STYXL1 #2 — log2 vehicle/camptothecin viability: 0.608; Outcome: active
STYXL1 #3 — log2 vehicle/camptothecin viability: 1.62; Outcome: active
STYXL1 #4 — log2 vehicle/camptothecin viability: 0.513; Outcome: active
